Series [1] is described as follows: general procedure: solution-phase peptide synthesis; EDC/HOAt. The conditions noted are these: coupling step.

Non-standard residues stand in square brackets, D forms with d. *: point of attachment. dNMeF = CN[C@H](Cc1ccccc1)C(=O)O; Boc = CC(C)(C)OC(=O)*

“HO-Hmp-Leu-N-Me-D-Gln-Ile-Gly-D-Phe-NH-Bn” showed a step yield in the series “peptide synthesis” (coupling step) of 35%.
The same measure, in the same setting: the same measure for “HO-Hmp-Leu-N-Me-Gln-Ile-Gly-N-Me-D-Phe-NH-MTC”: 60%.
With “HO-Hmp-Leu-N-Me-D-Gln-Ile-Gly-N-Me-D-Phe-NH-TIQ”, the step yield in “peptide synthesis” (coupling step) is reported as 59%.
For “HO-Hmp-Leu-N-Me-Gln-Ile-Gly-N-Me-D-Phe-NH-TIQ”, the step yield in “peptide synthesis” (coupling step) came to 60%.
Substance “HO-Hmp-Leu-N-Me-D-Gln-Ile-Gly-N-Me-D-Phe-NH-MTC” showed a step yield in “peptide synthesis” (coupling step) of 67%.
Consider “HO-Hmp-Leu-D-Gln-Ile-Gly-N-Me-D-Phe-NH-Bn”, for which the step yield in the series “peptide synthesis” (coupling step) came to 75%.
Still for that read-out and setting: the same measure for “HO-Hmp-Leu-N-Me-D-Gln-Ile-Gly-N-Me-D-Phe-NH-Ph”: 67%.
For the substance “N,N-Me2-D-Gln-Ile-Gly-N-Me-D-Phe-Pro-OMe”, in “peptide synthesis” (late stage modification step), the step yield worked out at 97%.
Boc-IG[dNMeF]P-OMe displayed a step yield in series [1] of 73%.
Substance “HO-Hmp-Leu-N-Me-D-Gln-Ile-Gly-N-Me-D-Phe-NH-Bn” returned a step yield in “peptide synthesis” (coupling step) of 77%.
In series [1], HO-Hmp-Leu-N-Me-D-Gln-Ile-Gly-OBn showed a step yield of 60%.
With “HO-Hmp-Leu-N-Me-Gln-Ile-Gly-N-Me-D-Phe-NH-Bn”, in “peptide synthesis” (coupling step), the step yield was 63%.
“HO-Hmp-Leu-N-Me-Ala-Ile-Gly-N-Me-D-Phe-NH-Bn” displayed a step yield in “peptide synthesis” (coupling step) of 63%.
In the case of N,N-Me2-Ile-Gly-N-Me-D-Phe-Pro-OMe, the step yield in series [1] came to 24%.
Take HO-Hmp-Leu-D-Gln-Ile-Gly-D-Phe-NH-Bn: the step yield in “peptide synthesis” (coupling step) is given as 32%.
In series [1], HO-Hmp-Leu-N-Me-D-Gln-Ile-OBn came in with a step yield of 85%.
Turning to “HO-Hmp-Leu-N-Me-Gln-Ile-Gly-N-Me-D-Phe-NH-Ph”, the step yield in the series “peptide synthesis” (coupling step) is 75%.
